Results as given in PMC8812904.

Experiments:
[1] = target: TuMV P1 bait (pBT3-STE) of the split-ubiquitin membrane yeast two-hybrid (Turnip mosaic virus (strain UK1)); test: two-hybrid; split-ubiquitin membrane-based yeast two-hybrid (DUALmembrane), NMY51 yeast; TuMV proteins as bait in pBT3-STE, AtVSR4 as prey in pPR3-N; selection on SD-LWHA with 25 mM 3AT
[2] = target: TuMV 6K2 bait (pBT3-STE) of the split-ubiquitin membrane yeast two-hybrid (Turnip mosaic virus (strain UK1)); test: as above
[3] = target: TuMV VPg bait (pBT3-STE) of the split-ubiquitin membrane yeast two-hybrid (Turnip mosaic virus (strain UK1)); test: as above
[4] = target: 3×flag-tagged TuMV VPg (Turnip mosaic virus (strain UK1)); test: co-IP; proteins transiently co-expressed in N. benthamiana leaves; cleared lysates immunopurified with anti-Flag M2 gel, immunoblot with anti-Flag and anti-GFP or anti-myc antibodies
[5] = target: 3×flag-tagged TuMV 6K2 (Turnip mosaic virus (strain UK1)); test: as above
[6] = target: C-luc-6K2 (Turnip mosaic virus (strain UK1)); test: split reporter; luciferase complementation imaging (LCI) in N. benthamiana leaves by agroinfiltration (OD600 0.50); 0.2 mM LUC substrate, imaged at 2 dpi
[7] = target: TuMV VPg, BiFC fusion with the C-terminal fragment of YFP (Turnip mosaic virus (strain UK1)); test: split reporter; BiFC in N. benthamiana leaf cells by agroinfiltration; TuMV genes in p35S-gateway-YFP-C, host genes in p35S-YFP-N; confocal microscopy at 2 dpai
[8] = target: TuMV 6K2^YC (BiFC fusion) (Turnip mosaic virus (strain UK1)); test: as above
[9] = target: TuMV P1, BiFC fusion with the C-terminal fragment of YFP (Turnip mosaic virus (strain UK1)); test: as above

B1: AtVSR4 prey (pPR3-N) of the split-ubiquitin membrane yeast two-hybrid (protein, UniProt Q56ZQ3 25-628)
chain: RFVVEKNSLSVTSPESIKGTHDSAIGNFGIPQYGGSMAGTVVYPKENQKSCKEFSDFSISFKSQPGALPTFLLVDRGDCFFALKVWNAQKAGASAVLVADNVDEPLITMDTPEEDVSSAKYIENITIPSALVTKGFGEKLKKAISGGDMVNLNLDWREAVPHPDDRVEYELWTNSNDECGVKCDMLMEFVKDFKGAAQILEKGGFTQFRPHYITWYCPHAFTLSRQCKSQCINKGRYCAPDPEQDFSSGYDGKDVVVENLRQLCVYKVANETGKPWVWWDYVTDFQIRCPMKEKKYNKDCAESVIKSLGIDSRKIDKCMGDPDADLDNPVLKEEQDAQVGKGTRGDVTILPTLVVNNRQYRGKLEKSAVLKALCSGFEESTEPAICLSTDMETNECLDNNGGCWQDKSANITACKDTFRGKVCVCPIVDGVRFKGDGYSHCEPSGPGRCTINNGGCWHEERDGHAFSACVDKDSVKCECPPGFKGDGVKKCEDINECKEKKACQCPECSCKNTWGSYECSCSGDLLYMRDHDTCISKTGSQVKSAWAAVWLIMLSLGLAAAGAYLVYKYRLRQYMDSEIRAIMAQYMPLDSQPEVPNHTNDERA
Q: Which binding [1] does the source give for B1 here?
A: Its binding is “binds”.

Q: What about the binding [2] of the same binder?
A: The binding was “binds”.

Q: What about the binding [3] of the same binder?
A: The binding was “binds”.

B2: YFP-tagged AtVSR4 (protein, UniProt Q56ZQ3 25-628)
chain: B1 chain
Q: For B2, which binding [4] is on record?
A: The binding was “no binding”.

Q: What about the binding [5] of the same binder?
A: The binding was “binds”.

B3: AtVSR4-C1A (protein, UniProt Q56ZQ3 25-628)
chain: B1 chain with Q573A, Y574A, M575A, D576A, S577A
Q: For B3, which binding [5] is on record?
A: Its binding is “no binding”.

B4: AtVSR4 AIRAAA mutant (protein, UniProt Q56ZQ3 25-628)
chain: B1 chain with E578A, I582A, M583A
Q: With B4 as the binder, how does the binding [5] read?
A: Its binding is “binds”.

B5: VSR4-N-luc (protein, UniProt Q56ZQ3 25-628)
chain: B1 chain
Q: How did the binding [6] turn out when B5 was run?
A: Its binding is “binds”.

B6: AtVSR4^YN (BiFC fusion) (protein, UniProt Q56ZQ3 25-628)
chain: B1 chain
Q: Which binding [7] does the source give for B6 here?
A: The binding was “binds weakly”.

Q: What about the binding [8] of the same binder?
A: Its binding is “binds”.

Q: What about the binding [9] of the same binder?
A: Its binding is “no binding”.

B7: AtVSR4 AMPA mutant (protein, UniProt Q56ZQ3 25-628)
chain: B1 chain with Y586A, L589A
Q: With B7 as the binder, how does the binding [5] read?
A: Its binding is “binds”.

B8: AtVSR4 double mutant (DM) (protein, UniProt Q56ZQ3 25-628)
chain: B1 chain with E578A, I582A, M583A, Y586A, L589A
Q: How did the binding [5] turn out when B8 was run?
A: The binding was “binds”.

B9: AtVSR4TM-myc (protein, UniProt Q56ZQ3 25-628)
chain: B1 chain with N124Q, N270Q, N410Q
Q: Which binding [5] does the source give for B9 here?
A: Its binding is “binds weakly”.

B10: AtVSR4-myc (protein, UniProt Q56ZQ3 25-628)
chain: B1 chain
modifications: N-linked high-mannose glycans at N148, N294 and N434
Q: Which binding [5] does the source give for B10 here?
A: Its binding is “binds”.

B11: TM-N-luc (protein, UniProt Q56ZQ3 25-628)
chain: B1 chain with N124Q, N270Q, N410Q
Q: How did the binding [6] turn out when B11 was run?
A: The binding was “binds weakly”.

B12: Endosome-localized AtVSR1, BiFC negative control (protein, UniProt P93026 23-623)
chain: VEKNNLKVTSPDSIKGIYECAIGNFGVPQYGGTLVGTVVYPKSNQKACKSYSDFDISFKSKPGRLPTFVLIDRGDCYFTLKAWIAQQAGAAAILVADSKAEPLITMDTPEEDKSDADYLQNITIPSALITKTLGDSIKSALSGGDMVNMKLDWTESVPHPDERVEYELWTNSNDECGKKCDTQIEFLKNFKGAAQILEKGGHTQFTPHYITWYCPEAFTLSKQCKSQCINHGRYCAPDPEQDFTKGYDGKDVVVQNLRQACVYRVMNDTGKPWVWWDYVTDFAIRCPMKEKKYTKECADGIIKSLGIDLKKVDKCIGDPEADVENPVLKAEQESQIGKGSRGDVTILPTLVVNNRQYRGKLEKGAVLKAMCSGFQESTEPAICLTEDLETNECLENNGGCWQDKAANITACRDTFRGRLCECPTVQGVKFVGDGYTHCKASGALHCGINNGGCWRESRGGFTYSACVDDHSKDCKCPLGFKGDGVKNCEDVDECKEKTVCQCPECKCKNTWGSYECSCSNGLLYMREHDTCIGSGKVGTTKLSWSFLWILIIGVGVAGLSGYAVYKYRIRSYMDAEIRGIMAQYMPLESQPPNTSGHHMDI
Q: With B12 as the binder, how does the binding [8] read?
A: Its binding is “no binding”.

Residue numbers refer to the chain shown, from its start. Numbers in names are those of the source. No constants are given. Whether binding was seen depends on the method and setting. For some assays here: Binding can be weak; no strength is given. For some assays here: Binding seen in cells or lysates may run through a third protein. For some assays here: Tags and fused reporters may be left off the sequences shown.
